Source: patent US20250332212A1, “METHOD FOR TREATING OR PREVENTING ALOPECIA” (Suzhou Mingren Pharmaceutical Biotechnology Co., Ltd., priority 2024, published 2025)
“And” between values parts separate entries of the source, which are not always exact repeats. Equal entries are not always repeated. Not every detail of the peptide structures is certain; ends, links or a residue may be inferred. Ends that are not written are not given here.

Test: FIG. 4

## FPGSDRFRGD [JP1, FPGSDRF-RGD]
  peak area(%): 99.6% and 99.5%
